# Test results published in patent publication US6803386B2, “Prostacyclin derivative containing compositions and methods of using the same for the treatment of cancer” (United Therapeutics Corporation, priority 2002, dated 2004).
# Some results were stated once for a whole list of compounds, not compound by compound.
# Tested on: human amelanotic melanoma cell line (LOX)
# Test: Apoptosis assay (Vybrant Apoptosis Assay Kit #4, YO-PRO)
# Type: cell-based
# Conditions: overnight incubation, dosages 10^−12 to 10^−3 M, n=4
# Protocol: An apoptosis assay marketed as Vybrant Apoptosis Assay Kit #4 from Molecular Probes, Inc., was obtained for the test. […] The apoptosis assay was performed four times (n=4) for each test compound.
smiles,measurement,value
"CCCCC[C@@H](O)CC[C@H]1[C@H](O)CC2Cc3c(cccc3OCC(=O)O)C[C@@H]21 (stereo partly drawn) [compound of Formula II, 9-Deoxy-2′,9α-methano-3-oxa-4,5,6-trinor-3,7-(1′,3′-interphenylene)-13,14-dihydro-PGF1]",dosage at which LOX cells were caused to enter apoptosis,over 10^−6 M
